Laboratory results published in US20100137641.
The exact form of at least one protein or probe is not confirmed. Results from cells or extracts need not show a direct contact.

Tested on: Orf2 (acyl homoserine lactone receptor-type transcription factor, LuxR-type) (Gluconacetobacter intermedius NCI1051)
Assay: EMSA
Details: in the presence of acyl homoserine lactone; binding described as suggested; protein in a lysate after overexpression

Sequence: CCCATTCTTACCCCTCGTGAAAAAGAATGCCTGACATGGACAGCCAAGGGCAAAAGCTCATGGGAAACCGGGATGATTGTTGGTGTCAGTGAGCGCACAGTTAACTTTCACATCAACAATGCCTTGCTGAAGCTGAAATGTACGAATCGTATCATGGGTGTGGTGCGGGCTATCTGCGCAGGGCTGATTGAACTGTAAAACCTGTCAGGTCTGACAGGTAACCTGACCGTCGATTTTCATGAATGATCCTCTCATCCAACAGGAAGAGAGTAGATCCATGATCGAAGTCGTAACCGTTGAAAACGCCCACTGGGCCGGAACTGCTCTCGCAGAGCAGTTCAAGTTCCGTTACCGCCATTTTGTGGCTAATGAGCAGTGGGAAGTCCCCTTCTACAAGGGCA (double strand) [orf1 upstream probe (nt 1349-1749)]
- binding result: binds
